Assay results as given in US10835519B2, “Targeting metabolic adaptive responses to chemotherapy” (University of Cincinnati, priority 2012, dated 2020).
For at least one compound, name, drawing or mass did not settle the structure.

Columns and labels:
[1] = system: S6K1; test: Ribosomal protein S6 phosphorylation as readout of S6K1 activity; format: cell-based; conditions: rapamycin 20 nM
Description: In particular, vector control and BCR-ABL^+ cells were cultured for three (3) hours in the absence of growth factor, then restimulated for thirty (30) minutes for analysis of S6K1 phosphorylation at T389 and the phosphorylation of ribosomal protein S6 at serines 235/236.
Small ribosomal protein S6 (pS^6) phosphorylation was measured.

[2] = system: BCR-ABL+ KBM7 cells; test: Glycolytic release of 3H2O from 5-3H-glucose; format: cell-based, human; conditions: rapamycin 20 nM; FIG. 2F
[3] = system: BCR-ABL+ FL5.12 cells; test: Glycolytic release of 3H2O from 5-3H-glucose; format: cell-based, murine; conditions: rapamycin 20 nM; FIG. 2D
[4] = system: BCR-ABL+ FL5.12 cells; test: Fatty acid oxidation, 3H release from 3H-palmitate; format: cell-based, murine; conditions: treatment with rapamycin; FIG. 7D
Description: (§1) The rate of ^3H release from ^3H-palmitate was used to measure FAO. The ^3H-palmitate was adopted from Djouadi, et al., (2003) Mol Genet Metab 78:112-8. Between approximately 0.5×10^6 and approximately 1.0×10^6 cells were washed with PBS, then cultured with approximately 400 μL of (9,10-^3H) palmitate:albumin for approximately 4 hours at approximately 37 degrees C. After incubation, approximately 10% TCA was added to each tube and centrifuged at approximately 3300 rpm for approximately 10 min at approximately 4 degrees C. before being mixed with 6N NaOH and applied to ion-exchange columns. Each column was washed with approximately 1 mL of water and the eluates were counted using a scintillation counter.

[5] = system: BCR-ABL+ K562 cells; test: Glycolytic release of 3H2O from 5-3H-glucose; format: cell-based, human; conditions: rapamycin 20 nM; FIG. 2G
[6] = system: S6K2; test: S6K2 expression level immunoblot; format: cell-based; conditions: response to rapamycin; FIG. 5C
[7] = system: BCR-ABL+ K562 cells; test: Viability by propidium iodide exclusion; format: cell-based, human; conditions: low glucose conditions; FIG. 4H
[8] = system: BCR-ABL+ primary mouse hematopoietic cells; test: Viability by propidium iodide exclusion; format: cell-based; conditions: low glucose conditions; FIG. 4G
[9] = system: BCR-ABL+ FL5.12 cells; test: Viability by propidium iodide exclusion (flow cytometer); format: cell-based
Description: BCR-ABL^+ FL5.12 cells were cultured in cytokine-free medium containing either 0.2 mM glucose (“low glucose”; -Glucose) or 10 mM glucose (“high glucose”, +Glucose) for 48 hours. The mean viability and standard deviation were determined by propidium iodide exclusion in a FACSAria flow cytometer (BD). Cells were washed three times in PBS and resuspended at a concentration of 2×10^5 per mL in media supplemented with 2 μg/mL of propidium iodide (Molecular Probes) prior to analysis. For the viability analysis of BCL-ABL^+ primary bone marrow cells, viability was measured after withdrawal from cytokines for five (5) days in high glucose or low glucose media. Methods used for culturing cells and measuring viability are described above and below.
Fatty acid oxidation inhibition via ST247, an inverse agonist that inhibits PPARδ activity, was examined. BCR-ABL-expressing FL5.12 cells were pretreated with vehicle control or 20 nM rapamycin overnight. Cells were cultured for 22 hours in complete medium lacking IL-3 and glucose, supplemented with the indicated treatments (vehicle, 0.5 μM ST247, 1 μM ST247, or 5 μM ST247). Viability was measured in three technical replicates by propidium iodide (PI) exclusion using a flow cytometer. […] The effect was dose dependent, with lesser concentrations resulting in little effect in rapamycin-treated cells.
In order to investigate the metabolic switch as glycolysis declines, BCR-ABL-expressing FL5.12 cells were pretreated with vehicle control or 20 nM rapamycin overnight. Cells were then cultured in complete medium lacking IL-3 with 100 μM glucose (a limiting concentration) for 46 hours, supplemented with either vehicle control or 5 μM ST247. Viability was measured in three technical replicates by PI exclusion in a flow cytometer.
BCR-ABL-expressing FL5.12 cells were pretreated with vehicle control or 20 nM rapamycin overnight. […] Viability was measured in three technical replicates by PI exclusion in a flow cytometer.

[10] = system: Akt; test: Akt phosphorylation immunoblot in BCR-ABL+ FL5.12 cells; format: cell-based, murine; conditions: cultures treated with rapamycin overnight; FIG. 5C
Description: Although Akt activation has been previously associated with glucose-dependent survival (see FIG. 4A), rebound activation of Akt was tested for association with increased survival in BCR-ABL^+ cells cultured under low glucose conditions. […] Inactivation of mTORC1 and S6K1 can trigger increases in the activity of Akt and other upstream kinases, due to knockdown or loss of feedback regulation.
Rapamycin treatment can induce rebound Akt activation in short-term cultures, but long term treatment can suppress Akt activation by the upstream kinase mTORC2. See, e.g., Sarbassov, et al., (2006) Mol Cell 22:159-68.

[11] = system: BCR-ABL+ KBM7 cells; test: Fatty acid oxidation, 3H release from 3H-palmitate; format: cell-based, human; conditions: treatment with rapamycin; FIG. 7C
Description: as §1

[12] = system: BCR-ABL+ K562 cells; test: Fatty acid oxidation, 3H release from 3H-palmitate; format: cell-based, human; conditions: treatment with rapamycin; FIG. 7B
Description: as §1

## CO[C@H]1C[C@@H]2CC[C@@H](C)[C@@](O)(O2)C(=O)C(=O)N2CCCC[C@H]2C(=O)O[C@H]([C@H](C)C[C@@H]2CC[C@@H](O)[C@H](OC)C2)CC(=O)[C@H](C)/C=C(\C)[C@@H](O)[C@@H](OC)C(=O)[C@H](C)C[C@H](C)/C=C/C=C/C=C/1C [rapamycin]
[1]
  S6K1 activity (phosphorylation of pS6): reduced S6K1 activity
[2]
  glycolysis (glycolytic rate): suppressed glycolysis
[3]
  glycolysis (glycolytic rate): suppressed glycolysis
[4]
  rate of FAO: significantly increased
[5]
  glycolysis (glycolytic rate): suppressed glycolysis
[6]
  S6K2 expression levels: no observed alteration in S6K2 expression levels
[7]
  cell survival: enhanced cell survival
[8]
  survival: enhanced survival
[9]; 20 nM rapamycin pretreatment overnight, 100 μM glucose, 46 hours, versus vehicle, FIG. 13
  viability (apoptosis): resistant to apoptosis
[9]; glucose-containing media, FIG. 4F
  cell death: did not induce cell death
[9]; low glucose conditions (0.2 mM glucose), FIG. 4F
  survival: conferred a survival advantage
[10]
  Akt phosphorylation: did not trigger increased Akt phosphorylation
[11]
  rate of FAO: significantly increased
[12]
  rate of FAO: significantly increased
